{"source": "PubChem BioAssay AID1259308 (NCATS, 2017)", "test": "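Knock-downs that increase output of a recombinant reporter protein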 (primary screen)", "cell system": "human HEK293 embryonic kidney cells stably expressing firefly luciferase (HEK-CMV-Luc2-Hygro)", "reagent": "single siRNA against human genes, 0.8 pmol siRNA per well", "duration": "72 h", "detection": "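Reporter luminescence and viable-cell signal on separate replicate plates, given as percent of non-targeting control and median/MAD z-scores, plus per-cell luciferase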", "scale": "total luciferase, z-score: higher = more reporter protein produced", "call rule": "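An siRNA counts as active if its total luciferase robust z-score exceeds 3; genes with two or more such siRNAs out of three were retested with fresh siRNAs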", "meaning of the calls": "active = raised luciferase; inactive = no rise", "note": "This is one part, drawn at random, of about 59,000 deposited reagents. In the full data, about 1,510 (2.6%) got an active call. 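Calls use total luciferase alone and ignore viability, so some active siRNAs may act by altering cell number.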 A number with no mark means an inactive call. Reagents against one gene are numbered here. Not all columns of the deposit are shown."}
{"gene knocked down": "IP6K2", "siRNA no.": 1, "total luciferase, z-score": -1.6}
{"gene knocked down": "IP6K2", "siRNA no.": 2, "total luciferase, z-score": -0.512}
{"gene knocked down": "IP6K2", "siRNA no.": 3, "total luciferase, z-score": 0.634}
{"gene knocked down": "IFT81", "siRNA no.": 1, "total luciferase, z-score": 0.809}
{"gene knocked down": "IFT81", "siRNA no.": 2, "total luciferase, z-score": 0.33}
{"gene knocked down": "IFT81", "siRNA no.": 3, "total luciferase, z-score": 0.698}
{"gene knocked down": "NECAB3", "siRNA no.": 1, "total luciferase, z-score": -0.345}
{"gene knocked down": "NECAB3", "siRNA no.": 2, "total luciferase, z-score": 0.0273}
{"gene knocked down": "NECAB3", "siRNA no.": 3, "total luciferase, z-score": 0.587}
{"gene knocked down": "BRD9", "siRNA no.": 1, "total luciferase, z-score": -0.238}
{"gene knocked down": "BRD9", "siRNA no.": 2, "total luciferase, z-score": -0.585}
{"gene knocked down": "BRD9", "siRNA no.": 3, "total luciferase, z-score": 0.718}

Not a retest: an excerpt of the list.
{"gene knocked down": "IP6K2", "siRNA no.": 1, "total luciferase, z-score": -1.6}
{"gene knocked down": "IP6K2", "siRNA no.": 2, "total luciferase, z-score": -0.512}
